In article PMC7618999:
No constants are given. Whether binding was seen depends on the method and setting. Some results given as binding are weak or reduced against the parent protein; the word gives no strength.

Tests used:
[1] = target: Drosophila melanogaster CTP synthase (dmCTPS) (Drosophila melanogaster) (UniProt Q9VUL1); test: cryo-electron tomography; CTP-state: 50 uM purified dmCTPS with 2 mM CTP and 10 mM magnesium ions, room temperature 30 min, mixed with an equal volume of 10 nm gold particles, vitrified; filaments, bundles and networks seen in tomograms; both purified
[2] = target: Drosophila melanogaster CTP synthase (dmCTPS) (Drosophila melanogaster) (UniProt Q9VUL1); test: cryo-electron tomography; DON-state: 50 uM purified dmCTPS with 60 uM DON, 2 mM ATP, 2 mM UTP, 2 mM GTP and 10 mM magnesium ions, room temperature 30 min, mixed with an equal volume of 10 nm gold particles, vitrified; filaments, bundles and networks seen in tomograms; both purified

binding [1]: binds
binding [2]: binds
B1: Drosophila melanogaster CTP synthase (dmCTPS) (enzyme, UniProt Q9VUL1 1-627)
chain: MKYILVTGGVISGVGKGVIASSFGTLLKSCGLDVTSIKIDPYINIDAGTFSPYEHGEVYVLDDGAEVDLDLGNYERFLDVTLHRDNNITTGKIYKLVIEKERTGEYLGKTVQVVPHITDAIQEWVERVAQTPVQGSSKPQVCIVELGGTIGDIEGMPFVEAFRQFQFRVKRENFCLAHVSLVPLPKATGEPKTKPTQSSVRELRGCGLSPDLIVCRSEKPIGLEVKEKISNFCHVGPDQVICIHDLNSIYHVPLLMEQNGVIEYLNERLQLNIDMSKRTKCLQQWRDLARRTETVRREVCIAVVGKYTKFTDSYASVVKALQHAALAVNRKLELVFIESCLLEEETLHSEPSKYHKEWQKLCDSHGILVPGGFGSRGMEGKIRACQWARENQKPLLGICLGLQAAVIEFARNKLGLKDANTTEIDPNTANALVIDMPEHHTGQLGGTMRLGKRITVFSDGPSVIRQLYGNPKSVQERHRHRYEVNPKYVHLLEEQGMRFVGTDVDKTRMEIIELSGHPYFVATQYHPEYLSRPLKPSPPFLGLILASVDRLNQYIQRGCRLSPRQLSDASSDEEDSVVGLAGATKSLSSLKIPITPTNGISKSCNGSISTSDSEGACGGVDPTNGHK
